# From the supplement of paper PMC4604168 (melanoma cell lines)
# This is one part of the list. Many values rest on one well or one pass, so single values are uncertain.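 The apoptosis fraction was the count of cleaved-PARP antibody-stained nuclei relative to all DNA-stained nuclei, imaged in 1,536-well plates. Screening doses were set so most cells survived, and baseline and induced cleaved-PARP levels vary greatly across cell lines.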
# Key:
# Assay in all cases: cleaved PARP positive nuclei fraction relative to DMSO control; melanoma cells; higher = more apoptosis
# Conditions in all cases: library dose: low library concentration; 72 h
# MZ2-MEL = test system: MZ2-MEL
# MeWo = test system: MeWo
# RPMI7951 = test system: RPMI7951
# RVH-421 = test system: RVH-421
# SkMel28 = test system: SkMel28
# SkMel2 = test system: SkMel2
# SkMel30 = test system: SkMel30
# SkMel5 = test system: SkMel5
# UACC257 = test system: UACC257
# UACC62 = test system: UACC62
# WM115 = test system: WM115
# WM1716 = test system: WM1716
# WM1745 = test system: WM1745
# WM3526 = test system: WM3526
# WM3619 = test system: WM3619
# WM451Lu = test system: WM451Lu
Compound,cleaved PARP positive nuclei fraction (MZ2-MEL) [%],cleaved PARP positive nuclei fraction (MeWo) [%],cleaved PARP positive nuclei fraction (RPMI7951) [%],cleaved PARP positive nuclei fraction (RVH-421) [%],cleaved PARP positive nuclei fraction (SkMel28) [%],cleaved PARP positive nuclei fraction (SkMel2) [%],cleaved PARP positive nuclei fraction (SkMel30) [%],cleaved PARP positive nuclei fraction (SkMel5) [%],cleaved PARP positive nuclei fraction (UACC257) [%],cleaved PARP positive nuclei fraction (UACC62) [%],cleaved PARP positive nuclei fraction (WM115) [%],cleaved PARP positive nuclei fraction (WM1716) [%],cleaved PARP positive nuclei fraction (WM1745) [%],cleaved PARP positive nuclei fraction (WM3526) [%],cleaved PARP positive nuclei fraction (WM3619) [%],cleaved PARP positive nuclei fraction (WM451Lu) [%]
"Cc1ccc(NC(=O)c2cccc(N(C)C)c2)cc1NC(=O)c1ccc(O)cc1 + C[C@@H]1CCN(C(=O)CC#N)C[C@@H]1N(C)c1ncnc2[nH]ccc12 [CP690550] (first compound 2 µM, partner dose 1 µM)",80.1,98.4,93.2,45.1,107,70.1,63.5,122,61.5,164,100,65.9,103,52.7,96.3,279
"Cc1ccc(NC(=O)c2cccc(N(C)C)c2)cc1NC(=O)c1ccc(O)cc1 + CN(NC(=O)CC(=O)NN(C)C(=S)c1ccccc1)C(=S)c1ccccc1 [STA4783] (first compound 2 µM, partner dose 0.006 µM)",141,40.3,51.1,256,84,40.1,76.6,122,69.7,84.4,180,171,218,67.5,163,55.5
"Cn1nnc2c(C(N)=O)ncn2c1=O [temozolomide] + CN(NC(=O)CC(=O)NN(C)C(=S)c1ccccc1)C(=S)c1ccccc1 [STA4783] (first compound 2 µM, partner dose 0.006 µM)",79.1,144,56,81.8,157,34.9,74.4,151,137,245,149,283,282,51.6,986,42.5
"COCC[n+]1c2c(n(Cc3cnccn3)c1C)C(=O)c1ccccc1C2=O + Cn1cncc1[C@@](N)(c1ccc(Cl)cc1)c1ccc2c(c1)c(-c1cccc(Cl)c1)cc(=O)n2C [tipifarnib] (first compound 0.0004 µM, partner dose 0.01 µM)",155,93.7,32.7,78.1,46.9,194,80.2,144,162,158,97.4,72.5,88.8,156,97.4,38.2
"Clc1ccc(Nc2nnc(Cc3ccncc3)c3ccccc23)cc1 [vatalanib] + O=C(Nc1cccc(Cl)c1)Nc1ncc(CCNc2ncnc3ccsc23)s1 [SNS314] (first compound 2 µM, partner dose 0.0008 µM)",170,128,69.8,25.9,111,95.5,217,70.6,100,75.7,60.6,154,112,67.3,123,70.2
"C=CCNC1=C2C[C@@H](C)C[C@H](OC)[C@H](O)[C@@H](C)/C=C(\C)[C@H](OC(N)=O)[C@@H](OC)/C=C\C=C(/C)C(=O)NC(=CC1=O)C2=O [Tanespimycin] + O=C(Nc1ccccc1)c1cc([N+](=O)[O-])ccc1Cl [GW9662] (first compound 0.002 µM, partner dose 2 µM)",85.4,229,96.9,85.4,50.1,20.3,415,139,53.6,109,94.2,33.3,91.7,33.4,95.4,207
"Cc1cc(N2CCOCC2)cc2[nH]c(-c3c(NC[C@@H](O)c4cccc(Cl)c4)cc[nH]c3=O)nc12 + O=C(O)c1ccc(-c2c[nH]c3ncc(-c4ccccc4)cc23)cc1C1CCCC1 [GSK650394] (first compound 0.2 µM, partner dose 0.16 µM)",197,59.8,53.6,77.9,65,121,86.6,199,208,247,76.3,92.3,123,65,108,97
"COCC[n+]1c2c(n(Cc3cnccn3)c1C)C(=O)c1ccccc1C2=O + NC(=O)Nc1cc(-c2cccc(F)c2)sc1C(=O)N[C@H]1CCCNC1 [AZD7762] (first compound 0.0004 µM, partner dose 0.02 µM)",142,133,159,131,55.5,141,78.6,125,71,46,68.6,107,174,69.3,162,88.8
"CC(=O)c1c(C)c2cnc(Nc3ccc(N4CCNCC4)cn3)nc2n(C2CCCC2)c1=O [palbociclib] + Cc1ccc(NC(=O)c2cccc(N(C)C)c2)cc1NC(=O)c1ccc(O)cc1 [ZM336372] (first compound 0.04 µM, partner dose 2 µM)",165,77.1,163,109,1170,174,196,89.3,52.6,118,107,65.4,123,48.2,134,28.7
